Laboratory results as given in article doi:10.1101/2020.02.07.938530.

The chains behind the UniProt entries cited, without tags or fusion partners.
UniProt Q12158: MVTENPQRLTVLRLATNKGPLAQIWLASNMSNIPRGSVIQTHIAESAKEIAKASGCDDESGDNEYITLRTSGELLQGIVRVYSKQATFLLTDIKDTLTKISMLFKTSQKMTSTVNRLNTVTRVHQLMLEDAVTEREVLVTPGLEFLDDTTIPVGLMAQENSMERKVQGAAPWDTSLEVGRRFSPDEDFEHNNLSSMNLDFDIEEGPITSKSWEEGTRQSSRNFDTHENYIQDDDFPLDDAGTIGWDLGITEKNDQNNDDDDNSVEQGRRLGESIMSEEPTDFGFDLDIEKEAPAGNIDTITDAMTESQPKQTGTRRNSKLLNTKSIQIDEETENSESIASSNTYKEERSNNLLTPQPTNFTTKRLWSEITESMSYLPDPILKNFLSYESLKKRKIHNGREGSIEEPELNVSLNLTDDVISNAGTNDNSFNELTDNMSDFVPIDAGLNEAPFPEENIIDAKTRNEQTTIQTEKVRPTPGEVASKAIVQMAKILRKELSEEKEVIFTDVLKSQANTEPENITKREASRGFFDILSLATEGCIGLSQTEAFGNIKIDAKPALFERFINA
UniProt P47037: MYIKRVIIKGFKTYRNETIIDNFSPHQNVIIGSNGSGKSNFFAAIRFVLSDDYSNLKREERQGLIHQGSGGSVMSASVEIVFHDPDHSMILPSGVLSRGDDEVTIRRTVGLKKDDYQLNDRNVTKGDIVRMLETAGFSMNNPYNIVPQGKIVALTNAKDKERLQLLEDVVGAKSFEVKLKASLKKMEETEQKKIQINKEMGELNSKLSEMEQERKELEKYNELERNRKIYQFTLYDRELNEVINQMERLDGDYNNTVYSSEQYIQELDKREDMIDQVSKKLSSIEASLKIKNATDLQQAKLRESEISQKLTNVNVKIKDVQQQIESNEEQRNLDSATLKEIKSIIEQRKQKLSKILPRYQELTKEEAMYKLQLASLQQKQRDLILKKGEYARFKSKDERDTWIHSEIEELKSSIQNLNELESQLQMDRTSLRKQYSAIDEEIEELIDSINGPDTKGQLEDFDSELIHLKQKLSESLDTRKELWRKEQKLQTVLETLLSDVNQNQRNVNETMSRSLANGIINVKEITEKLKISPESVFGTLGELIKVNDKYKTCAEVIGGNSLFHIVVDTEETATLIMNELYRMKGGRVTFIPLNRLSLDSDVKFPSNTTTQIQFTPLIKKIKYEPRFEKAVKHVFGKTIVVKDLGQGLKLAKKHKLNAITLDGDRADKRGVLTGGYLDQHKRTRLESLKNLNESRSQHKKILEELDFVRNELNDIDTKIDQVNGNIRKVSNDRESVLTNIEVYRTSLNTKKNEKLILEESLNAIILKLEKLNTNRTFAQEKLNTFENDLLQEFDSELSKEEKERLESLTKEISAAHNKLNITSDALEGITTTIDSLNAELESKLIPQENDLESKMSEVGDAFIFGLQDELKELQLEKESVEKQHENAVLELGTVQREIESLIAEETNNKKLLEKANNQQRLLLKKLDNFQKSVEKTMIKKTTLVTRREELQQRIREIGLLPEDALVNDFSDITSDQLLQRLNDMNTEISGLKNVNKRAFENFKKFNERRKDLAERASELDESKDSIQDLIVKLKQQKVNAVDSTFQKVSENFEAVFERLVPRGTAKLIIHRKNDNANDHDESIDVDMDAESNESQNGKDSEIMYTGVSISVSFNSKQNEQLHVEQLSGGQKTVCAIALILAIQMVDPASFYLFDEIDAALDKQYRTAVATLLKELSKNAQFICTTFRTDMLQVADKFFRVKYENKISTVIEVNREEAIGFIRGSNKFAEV

Legend:
Assay in all cases: affinity purification with mass spectrometry
[1] = biological target: T1, 5FLAG-Scc3 (yeast (budding yeast, Saccharomyces cerevisiae)) (UniProt P40541)
T1 sequence: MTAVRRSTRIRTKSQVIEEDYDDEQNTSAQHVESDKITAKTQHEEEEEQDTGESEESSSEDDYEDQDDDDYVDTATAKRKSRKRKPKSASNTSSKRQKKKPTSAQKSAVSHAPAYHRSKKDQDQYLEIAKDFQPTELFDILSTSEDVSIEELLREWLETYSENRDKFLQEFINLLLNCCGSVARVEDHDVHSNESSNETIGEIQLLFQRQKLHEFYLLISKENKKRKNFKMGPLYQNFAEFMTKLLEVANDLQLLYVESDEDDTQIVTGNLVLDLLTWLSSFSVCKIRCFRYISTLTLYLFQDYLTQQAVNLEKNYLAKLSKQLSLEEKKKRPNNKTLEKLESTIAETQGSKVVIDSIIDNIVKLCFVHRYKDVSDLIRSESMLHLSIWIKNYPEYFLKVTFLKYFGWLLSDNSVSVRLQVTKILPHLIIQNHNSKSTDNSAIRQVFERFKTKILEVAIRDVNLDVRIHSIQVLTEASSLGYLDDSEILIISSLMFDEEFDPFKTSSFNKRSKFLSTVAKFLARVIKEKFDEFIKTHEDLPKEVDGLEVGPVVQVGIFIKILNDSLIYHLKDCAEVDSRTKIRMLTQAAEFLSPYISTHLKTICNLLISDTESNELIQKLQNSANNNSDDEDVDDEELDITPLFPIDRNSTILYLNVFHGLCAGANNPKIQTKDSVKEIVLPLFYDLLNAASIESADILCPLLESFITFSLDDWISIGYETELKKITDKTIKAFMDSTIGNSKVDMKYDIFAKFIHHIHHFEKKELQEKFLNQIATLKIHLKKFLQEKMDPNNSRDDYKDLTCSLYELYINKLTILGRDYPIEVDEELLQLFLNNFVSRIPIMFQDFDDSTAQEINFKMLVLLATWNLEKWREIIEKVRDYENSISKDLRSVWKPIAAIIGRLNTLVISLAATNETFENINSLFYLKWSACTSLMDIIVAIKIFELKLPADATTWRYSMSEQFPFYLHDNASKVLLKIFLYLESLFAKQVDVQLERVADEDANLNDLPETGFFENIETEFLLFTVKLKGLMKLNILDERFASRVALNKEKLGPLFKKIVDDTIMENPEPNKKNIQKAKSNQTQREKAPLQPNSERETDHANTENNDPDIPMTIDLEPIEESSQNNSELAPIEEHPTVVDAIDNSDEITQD

[2] = biological target: 5FLAG-Scc1 (yeast (budding yeast, Saccharomyces cerevisiae)) (UniProt Q12158)
[3] = biological target: T2, 5FLAG-Scc3 (yeast (budding yeast, Saccharomyces cerevisiae)), P40541; details: remark: other sources report otherwise
T2 chain: T1 sequence

binding [1]: binds
Molecule: Smc3 (from UniProt P47037 1-1230)

binding [1]: binds
Molecule: Scc1 (from UniProt Q12158 1-566)

binding [2]: binds
B1: Scc3 (protein, UniProt P40541 1-1150)
chain: T1 sequence

binding [2]: binds
B2: Pds5 (protein, UniProt Q04264 1-1277)
chain: MAKGAVTKLKFNSPIISTSDQLISTNELLDRLKALHEELASLDQDNTDLTGLDKYRDALVSRKLLKHKDVGIRAFTACCLSDILRLYAPDAPYTDAQLTDIFKLVLSQFEQLGDQENGYHIQQTYLITKLLEYRSIVLLADLPSSNNLLIELFHIFYDPNKSFPARLFNVIGGILGEVISEFDSVPLEVLRLIFNKFLTYNPNEIPEGLNVTSDCGYEVSLILCDTYSNRMSRHLTKYYSEIIHEATNDDNNSRLLTVVVKLHKLVLRLWETVPELINAVIGFIYHELSSENELFRKEATKLIGQILTSYSDLNFVSTHSDTFKAWISKIADISPDVRVEWTESIPQIIATREDISKELNQALAKTFIDSDPRVRRTSVMIFNKVPVTEIWKNITNKAIYTSLLHLAREKHKEVRELCINTMAKFYSNSLNEIERTYQNKEIWEIIDTIPSTLYNLYYINDLNINEQVDSVIFEYLLPFEPDNDKRVHRLLTVLSHFDKKAFTSFFAFNARQIKISFAISKYIDFSKFLNNQESMSSSQGPIVMNKYNQTLQWLASGLSDSTKAIDALETIKQFNDERIFYLLNACVTNDIPFLTFKNCYNELVSKLQTPGLFKKYNISTGASIMPRDIAKVIQILLFRASPIIYNVSNISVLLNLSNNSDAKQLDLKRRILDDISKVNPTLFKDQIRTLKTIIKDLDDPDAEKNDNLSLEEALKTLYKASKTLKDQVDFDDTFFFTKLYDFAVESKPEITKYATKLIALSPKAEETLKKIKIRILPLDLQKDKYFTSHIIVLMEIFKKFPHVLNDDSTDIISYLIKEVLLSNQVVGDSKKEIDWVEDSLLSDTKYSAIGNKVFTLKLFTNKLRSIAPDVPRDELAESFTEKTMKLFFYLIASGGELISEFNKEFYPTPSNYQTKLRCVAGIQVLKLARISNLNNFIKPSDIIKLINLVEDESLPVRKTFLEQLKDYVANELISIKFLPLVFFTAYEPDVELKTTTKIWINFTFGLKSFKKGTIFERALPRLIHAIAHHPDIVGGLDSEGDAYLNALTTAIDYLLFYFDSIAAQENFSLLYYLSERVKNYQDKLVEDEIDEEEGPQKEEAPKKHRPYGQKMYIIGELSQMILLNLKEKKNWQHSAYPGKLNLPSDLFKPFATVQEAQLSFKTYIPESLTEKIQNNIKAKIGRILHTSQTQRQRLQKRLLAHENNESQKKKKKVHHARSQADDEEGDGDRESDSDDDSYSPSNKNETKKGHENIVMKKLRVRKEVDYKDDEDDDIEMT

binding [3]: binds
B3: Pds5, Q04264 1-1277 (protein)
chain: B2 chain

binding [1]: binds
B4: Smc1 (protein, UniProt P32908 1-1225)
chain: MGRLVGLELSNFKSYRGVTKVGFGESNFTSIIGPNGSGKSNMMDAISFVLGVRSNHLRSNILKDLIYRGVLNDENSDDYDNEGAASSNPQSAYVKAFYQKGNKLVELMRIISRNGDTSYKIDGKTVSYKDYSIFLENENILIKAKNFLVFQGDVEQIAAQSPVELSRMFEEVSGSIQYKKEYEELKEKIEKLSKSATESIKNRRRIHGELKTYKEGINKNEEYRKQLDKKNELQKFQALWQLYHLEQQKEELTDKLSALNSEISSLKGKINNEMKSLQRSKSSFVKESAVISKQKSKLDYIFKDKEKLVSDLRLIKVPQQAAGKRISHIEKRIESLQKDLQRQKTYVERFETQLKVVTRSKEAFEEEIKQSARNYDKFKLNENDLKTYNCLHEKYLTEGGSILEEKIAVLNNDKREIQEELERFNKRADISKRRITEELSITGEKLDTQLNDLRVSLNEKNALHTERLHELKKLQSDIESANNQEYDLNFKLRETLVKIDDLSANQRETMKERKLRENIAMLKRFFPGVKGLVHDLCHPKKEKYGLAVSTILGKNFDSVIVENLTVAQECIAFLKKQRAGTASFIPLDTIETELPTLSLPDSQDYILSINAIDYEPEYEKAMQYVCGDSIICNTLNIAKDLKWKKGIRGKLVTIEGALIHKAGLMTGGISGDANNRWDKEEYQSLMSLKDKLLIQIDELSNGQRSNSIRAREVENSVSLLNSDIANLRTQVTQQKRSLDENRLEIKYHNDLIEKEIQPKITELKKKLDDLENTKDNLVKEKEALQNNIFKEFTSKIGFTIKEYENHSGELMRQQSKELQQLQKQILTVENKLQFETDRLSTTQRRYEKAQKDLENAQVEMKSLEEQEYAIEMKIGSIESKLEEHKNHLDELQKKFVTKQSELNSSEDILEDMNSNLQVLKRERDGIKEDIEKFDLERVTALKNCKISNINIPISSETTIDDLPISSTDNEAITISNSIDINYKGLPKKYKENNTDSARKELEQKIHEVEEILNELQPNARALERYDEAEGRFEVINNETEQLKAEEKKILNQFLKIKKKRKELFEKTFDYVSDHLDAIYRELTKNPNSNVELAGGNASLTIEDEDEPFNAGIKYHATPPLKRFKDMEYLSGGEKTVAALALLFAINSYQPSPFFVLDEVDAALDITNVQRIAAYIRRHRNPDLQFIVISLKNTMFEKSDALVGVYRQQQENSSKIITLDLSNYAE

No constants are given. Whether binding was seen depends on the method and setting. Binding seen in cells or lysates may run through a third protein. These calls come from enrichment with a bait or labelling near it, and not all partners need be listed. For part of these data: Tags and fused reporters may be left off the sequences shown. Each block holds one molecule with its values, some of them ahead of it.
